In the supplement of paper PMC9226226:
The list shows a part of the results. Several reference drugs read as weak here; read low effects with care.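 The cells are human mesenchymal stem cells that lack the Werner syndrome gene and age prematurely. Growth was tracked by automated live-cell imaging in three biological repeats, and the twenty drugs that most raised growth over vehicle were taken forward, with no fixed cutoff stated.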 Square brackets hold non-standard residues; d marks the D form. Peptide text beside a SMILES is read from it. pGlu = O=C1CC[C@@H](C(=O)O)N1; Thz = O=C(O)[C@@H]1CSCN1

Test system: Werner syndrome hMSCs (WRN-/-)
Assay: relative cell density (fold change vs vehicle control); higher = more proliferation (geroprotective)
Details: concentration (umol/L): 1, 6 days

Row | SMILES | relative cell density (vehicle: DMSO) | relative cell density (vehicle: Water)
1 | N[C@H]1CONC1=O | 1.04 | –
2 | CNC(=O)c1ccc(N2C(=S)N(c3ccc(C#N)c(C(F)(F)F)c3)C(=O)C2(C)C)cc1F | 0.889 | –
3 | CC#CCn1c(N2CCC[C@@H](N)C2)nc2c1c(=O)n(Cc1nc(C)c3ccccc3n1)c(=O)n2C | 1.46 | –
4 | CCN(CCCCOC(=O)c1ccc(OC)c(OC)c1)C(C)Cc1ccc(OC)cc1 (centres undefined) | 1.13 | –
5 | CCN(CC)C(=O)C1(c2ccccc2)CC1CN (centres undefined) | 1.02 | –
6 | Cc1cc(C(C)(C)C)cc(C)c1CC1=NCCN1 | 0.948 | –
7 | CC#C[C@]1(O)CC[C@H]2[C@@H]3CCC4=CC(=O)CCC4=C3[C@@H](c3ccc(N(C)C)cc3)C[C@@]21C | 0.994 | –
8 | CC[C@@H]1C(=O)N(C)c2cnc(Nc3ccc(C(=O)N[C@H]4CC[C@H](N5CCN(CC6CC6)CC5)CC4)cc3OC)nc2N1C(C)C | 0.345 | –
9 | Nc1nc(=O)n([C@@H]2CS[C@H](CO)O2)cc1F | 1.09 | –
10 | COc1ccc(Cl)cc1C(=O)NCCc1ccc(S(=O)(=O)NC(=O)NC2CCCCC2)cc1 | 0.83 | –
11 | CCCCCCNC(=O)n1cc(F)c(=O)[nH]c1=O | 0.616 | –
12 | CCC[C@@H]1C[C@@H](C(=O)N[C@@H]([C@H]2O[C@H](SC)[C@H](OP(=O)(O)O)[C@@H](O)[C@H]2O)[C@H](C)Cl)N(C)C1 | – | 1.1
13 | [Cl][Mn][Cl] | – | 1.5
14 | Cc1nc(C(=O)NCC(=O)O)c(O)c2ccc(Oc3ccccc3)cc12 | 1.06 | –
15 | CC(C)(Oc1ccc(Cl)cc1)C(=O)OCCOC(=O)c1cccnc1 | 1.23 | –
16 | CC1(C)O[C@@H]2C[C@H]3[C@@H]4C[C@H](F)C5=CC(=O)C=C[C@]5(C)[C@@]4(F)[C@@H](O)C[C@]3(C)[C@]2(C(=O)CO)O1 | 1.26 | –
17 | Cc1cc(C)nc(NS(=O)(=O)c2ccc(N)cc2)n1 | 1.09 | –
18 | CC(C)[C@H](N)C(=O)OCCOCn1cnc2c(=O)nc(N)[nH]c21 | 1.07 | –
19 | CC[C@H](NC(=O)[C@H](C)NC)C(=O)N1C[C@@H](O)C[C@H]1Cc1c(-c2[nH]c3cc(F)ccc3c2C[C@@H]2C[C@H](O)CN2C(=O)[C@H](CC)NC(=O)[C@H](C)NC)[nH]c2cc(F)ccc12 | 1.02 | –
20 | CN1CCN2c3ncccc3Cc3ccccc3C2C1 (centres undefined) | 1.29 | –

Row | SMILES | relative cell density (vehicle: DMSO) | relative cell density (vehicle: Water)
21 | C[C@@H]1C/C=C/C=C/C=C/C=C/[C@H](O[C@@H]2O[C@H](C)[C@@H](O)[C@H](N)[C@@H]2O)C[C@@H]2O[C@](O)(C[C@@H](O)C[C@H]3O[C@@H]3/C=C/C(=O)O1)C[C@H](O)[C@H]2C(=O)O | 1.01 | –
22 | CC(C(O)c1ccc(O)cc1)N1CCC(Cc2ccccc2)CC1 (centres undefined) | 1.02 | –
23 | CCn1c(=O)c2c(nc(/C=C/c3ccc(OC)c(OC)c3)n2C)n(CC)c1=O | 1.03 | –
24 | O=C(c1ccc(F)cc1)C1CCN(CCn2c(=O)[nH]c3ccccc3c2=O)CC1 | – | 0.764
25 | Clc1ccc2c(c1)CCc1cccnc1C2=C1CCNCC1 | 1.04 | –
26 | O=C1NCC2(CCN(CCc3ccccc3)CC2)O1 | 0.18 | –
27 | CCS(=O)(=O)N1CC(CC#N)(n2cc(-c3ncnc4[nH]ccc34)cn2)C1 | 1.66 | –
28 | Cc1[nH]cnc1CN1CCc2c(c3ccccc3n2C)C1=O | – | 1.66
29 | CO[C@H]1/C=C/O[C@@]2(C)Oc3c(C)c(O)c4c(O)c(c5c(nc6cc(C)ccn65)c4c3C2=O)NC(=O)/C(C)=C\C=C\[C@H](C)[C@H](O)[C@@H](C)[C@@H](O)[C@@H](C)[C@H](OC(C)=O)[C@@H]1C | 0.847 | –
30 | CCCCCOc1ccccc1/C(=C\SC)n1ccnc1 | 1.15 | –
31 | Clc1cccc(Cl)c1NC1=NCCN1 | 1.24 | –
32 | C[C@]12C=CC(=O)N[C@@H]1CC[C@@H]1[C@@H]2CC[C@]2(C)[C@@H](C(=O)Nc3cc(C(F)(F)F)ccc3C(F)(F)F)CC[C@@H]12 | 0.863 | –
33 | CCCNC(=O)NS(=O)(=O)c1ccc(Cl)cc1 | 1.36 | –
34 | COc1ccc(Cl)c(Nc2nc3ccccc3nc2NS(=O)(=O)c2cccc(NC(=O)C(C)(C)N)c2)c1 | 0.885 | –
35 | CC(=O)O[C@]1(C(C)=O)CC[C@H]2[C@@H]3C=C(Cl)C4=CC(=O)CC[C@]4(C)[C@H]3CC[C@@]21C | 1.23 | –
36 | Cc1cnc(Nc2ccc(OCCN3CCCC3)cc2)nc1Nc1cccc(S(=O)(=O)NC(C)(C)C)c1 | 0.455 | –
37 | CNCCc1ccccn1 | 1.03 | –
38 | NCCCCCC(=O)O | 0.887 | –
39 | CN(C)C(=N)NC(=N)N | 1.22 | –
40 | Nc1nc2c(ncn2COC(CO)CO)c(=O)[nH]1 | 1.18 | –

Row | SMILES | relative cell density (vehicle: DMSO) | relative cell density (vehicle: Water)
41 | CCOC(=O)[C@H]1O[C@@H]1C(=O)N[C@@H](CC(C)C)C(=O)NCCC(C)C | 1.23 | –
42 | CC(C)NCC(O)COc1ccc(CC(N)=O)cc1 (centres undefined) | 1.41 | –
43 | Cn1c(=O)c2c(ncn2CC2OCCO2)n(C)c1=O | 1.2 | –
44 | CC(C)(C)c1cc(C(C)(C)C)c(NC(=O)c2c[nH]c3ccccc3c2=O)cc1O | 1.01 | –
45 | Cc1ccc([C@@H]2O[C@H](CO)[C@@H](O)[C@H](O)[C@H]2O)cc1Cc1ccc(-c2ccc(F)cc2)s1 | 1.13 | –
46 | CN1CCN(CC(=O)N2c3ccccc3C(=O)Nc3cccnc32)CC1 | – | 0.871
47 | CCCCC(CC)COC(=O)CC(C(=O)OCC(CC)CCCC)S(=O)(=O)O (centres undefined) | 1.21 | –
48 | Nc1ncnc2c1ncn2[C@@H]1O[C@H](CO)[C@@H](O)[C@@H]1O | 1.48 | –
49 | CCOc1nc2cccc(C(=O)O)c2n1Cc1ccc(-c2ccccc2-c2nnn[nH]2)cc1 | 1.12 | –
50 | C[C@@](Cc1ccc(O)c(O)c1)(NN)C(=O)O | 1.19 | –
51 | CN(C)CCC(c1ccc(Br)cc1)c1ccccn1 (centres undefined) | 0.959 | –
52 | O=c1[nH]c2ccccc2n1CCN1CCN(c2cccc(C(F)(F)F)c2)CC1 | 1.12 | –
53 | Oc1c(Cl)cc(Cl)c2cccnc12 | 0.937 | –
54 | c1ccc(-c2ccc(C(c3ccccc3)n3ccnc3)cc2)cc1 (centres undefined) | 1.14 | –
55 | O=C1CC[C@@H](C(=O)N2CSC[C@H]2C(=O)O)N1 ([pGlu]-[Thz]-OH) | 1 | –
56 | COC(=O)C1=C(C)NC(C)=C(C(=O)OC(C)(C)CN(C)CCC(c2ccccc2)c2ccccc2)C1c1cccc([N+](=O)[O-])c1 (centres undefined) | 1.41 | –
57 | CCCCc1oc2ccc(NS(C)(=O)=O)cc2c1C(=O)c1ccc(OCCCN(CCCC)CCCC)cc1 | 1.5 | –
58 | CCC1(c2ccccc2)C(=O)NCNC1=O | 1.05 | –
59 | COc1cccc2c1C(=O)c1c(O)c3c(c(O)c1C2=O)CC(O)(C(=O)CO)CC3OC1CC(N)C(O)C(C)O1 (centres undefined) | 0.0817 | –
